Drawing on article PMC10868759, this text covers binding for 9 molecules.

Results are given in words; binding and its absence hold for the method and conditions named. In cells and extracts the contact can be indirect. These calls come from enrichment with a bait or labelling near it, and not all partners need be listed. Sequences can lack the tags named with a protein.

The chains are these.
T1: YFP-CESA6 (Arabidopsis thaliana) (UniProt Q94JQ6)
T1 sequence: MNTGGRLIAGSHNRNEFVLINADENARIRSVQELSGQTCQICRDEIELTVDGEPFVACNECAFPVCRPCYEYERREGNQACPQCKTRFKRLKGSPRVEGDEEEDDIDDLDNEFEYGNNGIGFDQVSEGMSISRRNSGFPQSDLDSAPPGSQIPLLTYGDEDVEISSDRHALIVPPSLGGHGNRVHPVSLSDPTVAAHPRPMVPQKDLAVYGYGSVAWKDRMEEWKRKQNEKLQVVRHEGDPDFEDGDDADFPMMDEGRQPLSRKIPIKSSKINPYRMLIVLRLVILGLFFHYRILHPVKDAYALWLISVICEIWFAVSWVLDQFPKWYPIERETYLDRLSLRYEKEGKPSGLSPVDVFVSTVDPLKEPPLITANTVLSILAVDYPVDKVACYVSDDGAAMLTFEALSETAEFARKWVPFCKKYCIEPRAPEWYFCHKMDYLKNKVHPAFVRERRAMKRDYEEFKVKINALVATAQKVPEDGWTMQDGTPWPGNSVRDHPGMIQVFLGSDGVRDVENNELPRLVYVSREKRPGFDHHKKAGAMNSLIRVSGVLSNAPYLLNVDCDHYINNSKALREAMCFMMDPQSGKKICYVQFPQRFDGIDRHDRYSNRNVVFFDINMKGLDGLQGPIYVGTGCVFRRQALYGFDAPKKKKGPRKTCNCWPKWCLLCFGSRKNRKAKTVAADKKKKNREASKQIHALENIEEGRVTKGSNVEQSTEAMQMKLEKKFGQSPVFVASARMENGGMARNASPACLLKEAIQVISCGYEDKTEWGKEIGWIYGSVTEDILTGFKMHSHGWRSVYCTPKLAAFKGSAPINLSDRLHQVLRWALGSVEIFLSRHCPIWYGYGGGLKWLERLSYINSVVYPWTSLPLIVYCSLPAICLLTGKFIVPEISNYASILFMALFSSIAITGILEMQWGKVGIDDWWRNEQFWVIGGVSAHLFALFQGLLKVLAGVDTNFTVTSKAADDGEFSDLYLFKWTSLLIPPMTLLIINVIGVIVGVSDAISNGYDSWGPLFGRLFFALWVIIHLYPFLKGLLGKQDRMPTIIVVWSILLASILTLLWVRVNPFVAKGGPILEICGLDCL

B1: VESICAL TRANSPORT V-SNARE 12 (protein, UniProt Q9SEL5 1-222)
chain: MSDVFEGYERQYCELSTNLSRKCHSASVLSNGEEKKGKIAEIKSGIDEADVLIRKMDLEARSLQPSAKAVCLSKLREYKSDLNQLKKEFKRVSSADAKPSSREELMESGMADLHAVSADQRGRLAMSVERLDQSSDRIRESRRLMLETEEVGISIVQDLSQQRQTLLHAHNKLHGVDDAIDKSKKVLTAMSRRMTRNKWIITSVIVALVLAIILIISYKLSH
B2: CESA3 (protein, UniProt Q941L0 1-1065)
chain: MESEGETAGKPMKNIVPQTCQICSDNVGKTVDGDRFVACDICSFPVCRPCYEYERKDGNQSCPQCKTRYKRLKGSPAIPGDKDEDGLADEGTVEFNYPQKEKISERMLGWHLTRGKGEEMGEPQYDKEVSHNHLPRLTSRQDTSGEFSAASPERLSVSSTIAGGKRLPYSSDVNQSPNRRIVDPVGLGNVAWKERVDGWKMKQEKNTGPVSTQAASERGGVDIDASTDILADEALLNDEARQPLSRKVSIPSSRINPYRMVIMLRLVILCLFLHYRITNPVPNAFALWLVSVICEIWFALSWILDQFPKWFPVNRETYLDRLALRYDREGEPSQLAAVDIFVSTVDPLKEPPLVTANTVLSILAVDYPVDKVSCYVSDDGAAMLSFESLAETSEFARKWVPFCKKYSIEPRAPEWYFAAKIDYLKDKVQTSFVKDRRAMKREYEEFKIRINALVSKALKCPEEGWVMQDGTPWPGNNTRDHPGMIQVFLGQNGGLDAEGNELPRLVYVSREKRPGFQHHKKAGAMNALVRVSAVLTNGPFILNLDCDHYINNSKALREAMCFLMDPNLGKQVCYVQFPQRFDGIDKNDRYANRNTVFFDINLRGLDGIQGPVYVGTGCVFNRTALYGYEPPIKVKHKKPSLLSKLCGGSRKKNSKAKKESDKKKSGRHTDSTVPVFNLDDIEEGVEGAGFDDEKALLMSQMSLEKRFGQSAVFVASTLMENGGVPPSATPENLLKEAIHVISCGYEDKSDWGMEIGWIYGSVTEDILTGFKMHARGWRSIYCMPKLPAFKGSAPINLSDRLNQVLRWALGSVEILFSRHCPIWYGYNGRLKFLERFAYVNTTIYPITSIPLLMYCTLPAVCLFTNQFIIPQISNIASIWFLSLFLSIFATGILEMRWSGVGIDEWWRNEQFWVIGGVSAHLFAVFQGILKVLAGIDTNFTVTSKASDEDGDFAELYLFKWTTLLIPPTTLLIVNLVGVVAGVSYAINSGYQSWGPLFGKLFFAFWVIVHLYPFLKGLMGRQNRTPTIVVVWSVLLASIFSLLWVRIDPFTSRVTGPDILECGINC
B3: CESA1 (protein, UniProt O48946 1-1081)
chain: MEASAGLVAGSYRRNELVRIRHESDGGTKPLKNMNGQICQICGDDVGLAETGDVFVACNECAFPVCRPCYEYERKDGTQCCPQCKTRFRRHRGSPRVEGDEDEDDVDDIENEFNYAQGANKARHQRHGEEFSSSSRHESQPIPLLTHGHTVSGEIRTPDTQSVRTTSGPLGPSDRNAISSPYIDPRQPVPVRIVDPSKDLNSYGLGNVDWKERVEGWKLKQEKNMLQMTGKYHEGKGGEIEGTGSNGEELQMADDTRLPMSRVVPIPSSRLTPYRVVIILRLIILCFFLQYRTTHPVKNAYPLWLTSVICEIWFAFSWLLDQFPKWYPINRETYLDRLAIRYDRDGEPSQLVPVDVFVSTVDPLKEPPLVTANTVLSILSVDYPVDKVACYVSDDGSAMLTFESLSETAEFAKKWVPFCKKFNIEPRAPEFYFAQKIDYLKDKIQPSFVKERRAMKREYEEFKVRINALVAKAQKIPEEGWTMQDGTPWPGNNTRDHPGMIQVFLGHSGGLDTDGNELPRLIYVSREKRPGFQHHKKAGAMNALIRVSAVLTNGAYLLNVDCDHYFNNSKAIKEAMCFMMDPAIGKKCCYVQFPQRFDGIDLHDRYANRNIVFFDINMKGLDGIQGPVYVGTGCCFNRQALYGYDPVLTEEDLEPNIIVKSCCGSRKKGKSSKKYNYEKRRGINRSDSNAPLFNMEDIDEGFEGYDDERSILMSQRSVEKRFGQSPVFIAATFMEQGGIPPTTNPATLLKEAIHVISCGYEDKTEWGKEIGWIYGSVTEDILTGFKMHARGWISIYCNPPRPAFKGSAPINLSDRLNQVLRWALGSIEILLSRHCPIWYGYHGRLRLLERIAYINTIVYPITSIPLIAYCILPAFCLITDRFIIPEISNYASIWFILLFISIAVTGILELRWSGVSIEDWWRNEQFWVIGGTSAHLFAVFQGLLKVLAGIDTNFTVTSKATDEDGDFAELYIFKWTALLIPPTTVLLVNLIGIVAGVSYAVNSGYQSWGPLFGKLFFALWVIAHLYPFLKGLLGRQNRTPTIVIVWSVLLASIFSLLWVRINPFVDANPNANNFNGKGGVF
B4: CGR3 (protein, UniProt Q0WPN7 1-258)
chain: MSRRQVRRVGDSGSFPFVGALHSKSRSSPLLSVCLVLVGACLLIGYAYSGPGMFKSIREVSKITGDYSCTAEVQRAIPILKSAYGDSMRKVLHVGPETCSVVSSLLNEEETEAWGVEPYDVEDADSNCKSLLHKGLVRVADIKFPLPYRSKSFSLVIVSDALDYLSPRYLNKTVPELARVASDGVVLLAGNPGQQKAKGGELSKFGRPAKMRSSSWWIRFFSQTNLEENEAASKKFEQAASKSSYKPACQVFHLKPLH
B5: SYNTAXIN OF PLANTS 71 (protein, UniProt Q9SF29 1-266)
chain: MTVIDILTRVDSICKKYDKYDVDKQREANISGDDAFARLYGAFETQIETALEKAELVTKEKNRAAAVAMNAEIRRTKARLSEEVPKLQRLAVKRVKGLTTEELAARNDLVLALPARIEAIPDGTAGGPKSTSAWTPSSTTSRPDIKFDSDGRFDDDYFQESNESSQFRQEYEMRKIKQEQGLDMISEGLDALKNMASDMNEELDRQVPLMDEIDTKVDRATSDLKNTNVRLKDTVNQLRSSRNFCIDIVLLCIVLGIAAYLYNVLK
B6: RABA2C (protein, UniProt Q96283 1-217)
chain: MTHRVDQEYDYLFKIVLIGDSGVGKSNILSRFTRNEFCLESKSTIGVEFATRTTQVEGKTIKAQIWDTAGQERYRAITSAYYRGAVGALLVYDITKRQTFDNVLRWLRELRDHADSNIVIMMAGNKSDLNHLRSVAEEDGQSLAEKEGLSFLETSALEATNVEKAFQTILGEIYHIISKKALAAQEAAAANSAIPGQGTTINVDDTSGGAKRACCSS
B7: GTPase Interacting Protein 4a (protein, UniProt O64614 1-281)
chain: MSQGDTVPLHPSSQSDIDEIENLINESVQSGPGTVLAARPPSPTRPSIPVSSSSSSSPFMQSNLPPLHPSSSAQKVTHVPVPPPLPAVSNSSNFQGASAFGSPPNTLTEPVWDTVKRDLSRIVSNLKLVVFPNPYREDPGKALRDWDLWGPFFFIVFLGLTLSWSASVKKSEVFAVAFALLAAGAVILTLNVLLLGGHIIFFQSLSLLGYCLFPLDVGAVICMLKDNVILKMVVVSVTLAWSSWAAYPFMSSAVNPRRKALALYPVFLMYVSVGFLIIAIN
B8: VAMP722 (protein, UniProt P47192 1-221)
chain: MAQQSLIYSFVARGTVILVEFTDFKGNFTSIAAQCLQKLPSSNNKFTYNCDGHTFNYLVENGFTYCVVAVDSAGRQIPMAFLERVKEDFNKRYGGGKAATAQANSLNKEFGSKLKEHMQYCMDHPDEISKLAKVKAQVSEVKGVMMENIEKVLDRGEKIELLVDKTENLRSQAQDFRTQGTQMRRKMWFQNMKIKLIVLAIIIALILIIILSICGGFNCGK
B9: COTTON GOLGI-RELATED 2 (protein, UniProt Q9M2Y6 1-261)
chain: MARRQVGSTRRVGDGGSFPFAGALHSKSRSSPLLSICLVLVGACLLIGYAYSGPGIFKSIKEVSKVTGDYSCTAEVQRAIPVLKKAYGDGMRKVLHVGPDTCSVVSSLLKEEETEAWGVEPYDIEDADSHCKSFVSKGLVRVADIKFPLPYRAKSFSLVIVSDALDYLSPKYLNKTVPELARVASDGVVLFAGLPGQQRAKVAELSKFGRPAKMRSASWWNRFFVQTNLEENDAPSKKFEQAVSKGLYKPACQVFHLKPLH

This experiment concerns the target T1, YFP-CESA6 (Arabidopsis thaliana). The experiment can be described thus: affinity purification with mass spectrometry; GFP-Trap A beads with 5 mg total protein extract of plants expressing YFP-CESA6 or LTi6b-GFP (control), overnight at 4°C; extraction buffer 100 mM Tris-HCl pH 7.5, 150 mM NaCl, 0.2% Nonidet P-40; washes with 150 mM and 500 mM NaCl; on-bead trypsin digestion, LC-MS/MS.
On to B1, for which the binding entry is given as “binds”.

Turning to B2, the binding result is listed as “binds”.

Take B3: the binding result is reported as “binds”.

For the molecule B4, the binding entry is given as “binds”.

As for B5, the binding result is “binds”.

For the molecule B6, the binding result is recorded as “binds”.

As to B7, the binding entry is on record as “binds”.

As for B8, the binding entry is on record as “binds”.

With B9, the binding result is reported as “binds”.
